Source: PubChem BioAssay AID1159578 (Peter MacCallum Cancer Centre, 2015)
The whole screen tested about 18,000 reagents; this is an unselected part. About 1,030 of them (5.7%) were called active. 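Inactive calls also include pools with fewer than 3300 nuclei, whose migration was not assessed.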 Raw values vary from plate to plate and are shown uncorrected. Further read-outs or replicates are left out here.

Test: 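Knock-downs that alter how fast lymphatic endothelial cells migrate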 (primary screen)
Cells: human lymphatic endothelial cells
Reagent: siRNA pool against human genes, 40 nM
Duration: 48 h after transfection
Read-out: 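High-content imaging of dye-stained cells in a scratch assay measures filled wound area and nuclei per well; duplicate means given as ratio to mock and robust z-score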
Scale: migration robust z-score: higher = faster migration into the scratch; nuclei per well: higher = more cells in the well
Call rule: 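Migration changed when robust z exceeds 2 or falls below -2 and mean nuclei number is at least 3300; otherwise not called changed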
Meaning of the calls: active = migration changed; inactive = no migration change, or too few cells

Gene,migration robust z-score,migration class with cell-count check,"nuclei per well, duplicate mean",activity call
TAF2,-0.1,migration z between -2 and 2; enough cells,5258,inactive
THAP4,-0.18,migration z between -2 and 2; enough cells,5322,inactive
DLX5,1.01,migration z between -2 and 2; enough cells,5686,inactive
RAB11A,0.03,migration z between -2 and 2; enough cells,7164,inactive
MMP15,-0.5,migration z between -2 and 2; enough cells,5418,inactive
NOL11,-0.22,migration z between -2 and 2; enough cells,5804,inactive
DPF1,1.02,migration z between -2 and 2; enough cells,4902,inactive
TTC23,-0.76,migration z between -2 and 2; enough cells,7110,inactive
BORCS5,1.4,migration z between -2 and 2; enough cells,5792,inactive
PPP6R3,-1.11,migration z between -2 and 2; enough cells,5906,inactive
NXPE4,0.4,migration z between -2 and 2; enough cells,7068,inactive
PGA5,1.66,migration z between -2 and 2; enough cells,5948,inactive
LDHB,0.18,under 3300 nuclei; migration not judged,3126,inactive
VDAC2,0.7,migration z between -2 and 2; enough cells,3900,inactive
TMEM117,1.59,migration z between -2 and 2; enough cells,5660,inactive
NSMCE2,-0.57,migration z between -2 and 2; enough cells,6743,inactive
NNT,-1.38,migration z between -2 and 2; enough cells,5056,inactive
ZBTB18,1.06,migration z between -2 and 2; enough cells,6820,inactive
ANKRD11,-0.08,migration z between -2 and 2; enough cells,6848,inactive
MAPKAPK5,0.44,migration z between -2 and 2; enough cells,5452,inactive
POP4,0.08,migration z between -2 and 2; enough cells,8342,inactive
COX7B2,0.84,migration z between -2 and 2; enough cells,5184,inactive
OPCML,0.78,migration z between -2 and 2; enough cells,5787,inactive

Ordered by “migration robust z-score” (high to low): some entries from above
Gene,migration robust z-score,migration class with cell-count check,"nuclei per well, duplicate mean",activity call
DPF1,1.02,migration z between -2 and 2; enough cells,4902,inactive
RAB11A,0.03,migration z between -2 and 2; enough cells,7164,inactive
NOL11,-0.22,migration z between -2 and 2; enough cells,5804,inactive
MMP15,-0.5,migration z between -2 and 2; enough cells,5418,inactive
